From paper PMC5681435, “Differential Regulation of G1 CDK Complexes by the Hsp90-Cdc37 Chaperone System” (Cell Reports, 2017)
Results are given in words; binding and its absence hold for the method and conditions named. Some binding calls cover weakened binding; strength is not graded here. For part of these data: Sequences can lack the tags named with a protein.

Protein sequences, listed by entry. Tags and fused reporters are not part of them. Residues count along the entry.
UniProt Q00534: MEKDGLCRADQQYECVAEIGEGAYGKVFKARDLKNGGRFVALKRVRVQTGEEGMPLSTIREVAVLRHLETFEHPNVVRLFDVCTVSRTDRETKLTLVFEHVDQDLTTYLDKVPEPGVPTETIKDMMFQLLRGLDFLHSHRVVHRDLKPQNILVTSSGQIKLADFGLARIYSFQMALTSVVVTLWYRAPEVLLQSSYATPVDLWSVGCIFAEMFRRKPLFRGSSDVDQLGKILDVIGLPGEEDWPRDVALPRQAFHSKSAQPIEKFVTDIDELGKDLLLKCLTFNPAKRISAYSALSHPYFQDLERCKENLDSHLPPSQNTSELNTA
UniProt P11802: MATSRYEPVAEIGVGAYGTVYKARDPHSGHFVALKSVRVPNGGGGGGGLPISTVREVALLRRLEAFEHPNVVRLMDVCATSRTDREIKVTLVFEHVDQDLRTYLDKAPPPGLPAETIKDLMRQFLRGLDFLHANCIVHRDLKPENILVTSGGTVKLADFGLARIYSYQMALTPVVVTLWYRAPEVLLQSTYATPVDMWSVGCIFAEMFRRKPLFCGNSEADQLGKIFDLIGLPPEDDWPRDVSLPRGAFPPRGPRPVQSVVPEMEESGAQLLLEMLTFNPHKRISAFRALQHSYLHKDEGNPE
UniProt P24385: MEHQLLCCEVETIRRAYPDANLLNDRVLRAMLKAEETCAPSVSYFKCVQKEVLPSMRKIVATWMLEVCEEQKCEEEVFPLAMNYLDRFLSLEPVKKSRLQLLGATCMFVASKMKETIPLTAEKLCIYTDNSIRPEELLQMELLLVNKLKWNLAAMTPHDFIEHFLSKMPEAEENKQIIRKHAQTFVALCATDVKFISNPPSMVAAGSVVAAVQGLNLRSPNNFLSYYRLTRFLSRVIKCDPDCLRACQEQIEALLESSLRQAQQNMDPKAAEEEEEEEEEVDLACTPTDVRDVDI
UniProt P46527, residues 1-106: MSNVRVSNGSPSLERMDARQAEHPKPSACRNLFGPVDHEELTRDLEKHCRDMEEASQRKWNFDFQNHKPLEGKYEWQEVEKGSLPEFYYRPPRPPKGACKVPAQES
UniProt P38936, residues 1-87: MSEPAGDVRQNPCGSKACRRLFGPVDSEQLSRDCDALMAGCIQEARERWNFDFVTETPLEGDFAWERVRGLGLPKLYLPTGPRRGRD
UniProt P30281: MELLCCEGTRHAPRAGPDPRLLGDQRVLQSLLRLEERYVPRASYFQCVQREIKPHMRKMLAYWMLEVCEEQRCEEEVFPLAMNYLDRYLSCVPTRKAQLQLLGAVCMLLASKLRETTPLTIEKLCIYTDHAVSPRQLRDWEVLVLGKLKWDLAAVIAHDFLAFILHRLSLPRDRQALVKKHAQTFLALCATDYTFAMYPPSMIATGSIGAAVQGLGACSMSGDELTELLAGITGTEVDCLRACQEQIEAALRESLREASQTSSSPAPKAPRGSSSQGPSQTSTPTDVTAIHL

Tests used:
[1] = target: CDK6 (of the CDK6-cyclin D1/D3 complexes used in the FLAG-Cdc37 pull-down) (human) (UniProt Q00534); assay: pull-down; both purified
GSTCDK6 (human) [2] = target: GSTCDK6 (human) (UniProt Q00534); assay: AlphaScreen or HTRF; both purified
GSTCDK6 (human) [3] = target: GSTCDK6 (human) (UniProt Q00534); assay: co-purification (GST affinity, then size-exclusion chromatography)
[4] = target: CDK4 (of the CDK4-cyclin D1/D3 complexes used in the FLAG-Cdc37 pull-down) (human) (UniProt P11802); assay: pull-down; both purified
[5] = target: T1, FLAG-tagged Cdc37 (human) (UniProt Q16543); assay: pull-down; both purified
T1 sequence: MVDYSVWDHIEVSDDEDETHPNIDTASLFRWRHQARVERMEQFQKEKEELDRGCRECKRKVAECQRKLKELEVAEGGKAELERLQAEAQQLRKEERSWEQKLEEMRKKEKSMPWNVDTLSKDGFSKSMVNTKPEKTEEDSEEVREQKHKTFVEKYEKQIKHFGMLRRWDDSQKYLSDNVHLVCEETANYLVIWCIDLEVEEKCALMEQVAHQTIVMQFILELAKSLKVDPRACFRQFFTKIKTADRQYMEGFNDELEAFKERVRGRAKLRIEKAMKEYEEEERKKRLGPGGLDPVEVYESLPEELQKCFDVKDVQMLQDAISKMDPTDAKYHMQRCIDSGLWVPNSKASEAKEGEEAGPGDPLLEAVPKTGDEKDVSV

GSTCDK4 (human) [6] = target: GSTCDK4 (human) (UniProt P11802); assay: AlphaScreen or HTRF; both purified
GSTCDK4 (human) [7] = target: GSTCDK4 (human) (UniProt P11802); assay: co-purification (GST affinity, then size-exclusion chromatography)
[8] = target: GSTCDK4-cyclin D1 complex (UniProt P11802); assay: SEC; both purified
[9] = target: GSTCDK4-cyclin D3 complex (UniProt P11802); assay: SEC; both purified
[10] = target: GSTCDK6-cyclin D3 complex (UniProt Q00534); assay: SEC; both purified
[11] = target: GSTCDK6-cyclin D1 complex (UniProt Q00534); assay: SEC; both purified
[12] = target: T2, Avi-tagged Kcyclin (Kaposi's sarcoma-associated herpesvirus) (UniProt Q77Q36); assay: pull-down; both purified
T2 sequence (chain, biotin (on the Avi tag)): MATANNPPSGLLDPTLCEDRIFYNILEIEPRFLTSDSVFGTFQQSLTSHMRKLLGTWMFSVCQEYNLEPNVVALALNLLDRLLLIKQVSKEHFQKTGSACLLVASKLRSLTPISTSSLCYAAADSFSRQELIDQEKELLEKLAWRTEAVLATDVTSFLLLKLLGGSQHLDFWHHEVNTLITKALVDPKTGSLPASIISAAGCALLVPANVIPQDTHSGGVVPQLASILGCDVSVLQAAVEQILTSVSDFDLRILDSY

cyclin D1 (from UniProt P24385 1-295) (other; other documents disagree on this pair)
binding [1]: binds
binding (GSTCDK6 (human) [2]): binds
binding (GSTCDK6 (human) [3]): binds

cyclin D1 (from UniProt P24385 1-295)
binding [4]: binds
binding [5]: no binding
binding (GSTCDK4 (human) [6]): binds
binding (GSTCDK4 (human) [7]): binds

p27KIP1 residues 1-106 (from UniProt P46527 1-106) (domain or fragment)
binding [8]: binds
binding [9]: binds
binding [10]: binds
binding [11]: binds

p21CIP1 residues 1-87 (from UniProt P38936 1-87) (domain or fragment)
binding [9]: binds

GSTCDK6 (from UniProt Q00534 1-326) (enzyme)
binding [12]: binds

cyclin D3 (from UniProt P30281 1-292)
binding [1]: binds
binding [4]: binds
binding [5]: no binding
binding (GSTCDK4 (human) [6]): binds
binding (GSTCDK6 (human) [2]): binds
binding (GSTCDK4 (human) [7]): binds
binding (GSTCDK6 (human) [3]): binds

CDK6 (of the CDK6-cyclin D1/D3 complexes used in the FLAG-Cdc37 pull-down) (from UniProt Q00534 1-326) (enzyme)
binding [5]: binds
